“And” between values parts separate entries of the source, which are not always exact repeats. Identical values can stand only once. Among all 350,000 compounds or so, about 6,000 (1.7%) were called active. The inconclusive results got no clear call from the source; some entries with a clear call stand among them for comparison. Rule as the data show it: active = CPE inhibition above about 20% (passing the limit was not always enough); inconclusive = no clear call, values can overlap the other calls; tested in BHK-21 cells.
assay: protection of cells from dengue 2 killing – plate reader, single concentration, primary screen (AID 651640); conditions: DENV2-infected cells, cytopathic effect rescue, at 9.99 µM, stronger effect = higher value;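 also: 0% = median of neutral control wells and 100% = median of positive control wells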

SMILES | CPE inhibition
Cc1noc(C)c1S(=O)(=O)N(C)C[C@@H]1Oc2ccc(NC(=O)Nc3cccc4ccccc34)cc2CC(=O)N([C@@H](C)CO)C[C@H]1C | inactive: 6.09%
Cc1ccc(C2=NC3(CCCCC3)NC2=S)cc1 | active: 22.3%
COc1ccccc1-c1ccc([C@H]2[C@H]3CN(C(=O)c4ccncc4)CCCCN3[C@H]2CO)cc1 | active: 22.2%
O=C(C[n+]1ccn(-c2ccccc2)c1)c1ccc([N+](=O)[O-])cc1 | inactive: 7.27%
CCOC(=O)C1=C[C@@H](CC)N(S(=O)(=O)c2ccc([N+](=O)[O-])cc2)[C@H]1c1ccccc1 | active: 41.8%
CCCN(CC(=O)Nc1ccccc1OC)C(=O)c1ccc(COc2ccccc2)o1 | inconclusive: 20.9%
CC1CCN(c2ccc3c(c2)S(=O)(=O)c2cccc(C(=O)NC4CCCCC4)c2C3=O)CC1 | active: 33.6%
CCN(CC)CCOC(=O)c1ccc2c(c1)OCCO2 | inconclusive: 68.1%
C[C@@H]1CN([C@H](C)CO)C(=O)c2cc(NC(=O)Nc3ccccc3)ccc2O[C@@H](C)CCCCO[C@@H]1CN(C)Cc1ccc(C(F)(F)F)cc1 | inactive: -3.87%
CCCNC(=O)N1[C@H](CNC(C)=O)[C@@H](c2ccccc2)[C@@H]1CO | active: 29.7%
Cn1cnc(S(=O)(=O)N2CCCCN3[C@H](CO)[C@@H](c4ccc(C5=CCCC5)cc4)[C@H]3C2)c1 | inactive: -7.76%
CN1CCN(C(=O)/C(=C/c2ccc(N(C)C)cc2)NC(=O)c2ccccc2)CC1 | inconclusive: 20.6%
C=C[C@@H]1c2c(F)cccc2N(S(=O)(=O)c2ccc(C)cc2)[C@H](c2ccc(C(=O)OC)cc2)C1(C#N)C#N | inactive: -8.66%
O=C(Nc1ccc2c(c1)OCO2)N[C@H]1CC[C@@H](CCNC(=O)C2CCOCC2)O[C@H]1CO | inconclusive: 57.8%
COc1ccc(S(=O)(=O)Nc2ccc3c(c2)CC(=O)N([C@@H](C)CO)C[C@H](C)[C@H](CN(C)Cc2ccc4c(c2)OCO4)O3)cc1 | active: 28.2%
COCC(=O)Nc1ccc2c(c1)[C@H]1C[C@H](CC(=O)NCc3ccc(Cl)cc3)O[C@H](CO)[C@H]1O2 | inconclusive: 56.5%
c1ccc(COCCCn2cc(-c3ccccc3)nn2)cc1 | active: 45.5%
Cn1c(SCC(=O)Nc2ccc3c(c2)OCO3)nnc1C(F)(F)F | inconclusive: 24%
COc1cc2c(cc1OC)C(c1ccccc1)N(C(=O)c1ccccc1)CC2 (configuration not stated) | inactive: -1.65%
CS(=O)(=O)Nc1ccc2c(c1)[C@@H]1C[C@@H](CC(=O)N3CCOCC3)O[C@@H](CO)[C@@H]1O2 | inactive: 0.341%
NC1=C(c2ccc([N+](=O)[O-])cc2)C(=O)CO1 | inconclusive: 32.4%
O=C(Nc1nnc([C@H]2C[C@H](O)[C@@H](CO)O2)s1)c1ccccc1F | active: 29.1%
Cc1cccc(OCc2nc3c4c(ncn3n2)-c2ccccc2CC42CCCC2)c1 | inconclusive: 39.8%
CNC[C@H]1Oc2cc(C#Cc3ccc(F)cc3)ccc2S(=O)(=O)N([C@H](C)CO)C[C@@H]1C | inconclusive: 38.2%

SMILES | CPE inhibition
O=C(Cn1c(=O)n(-c2ccccc2)c(=O)c2sccc21)NCc1ccccc1 | inactive: 11.8%
N=c1c2c(ncn1Cc1ccco1)Oc1cc(O)ccc1C2c1ccccc1 (configuration not stated) | inactive: 2.17%
CN(C)S(=O)(=O)c1cccc(C(=O)Nc2ccccc2C(=O)NC2CC2)c1 | active: 54.1%
Cc1ccccc1-c1ccc(C2[C@@H]3CN(S(=O)(=O)c4cn(C)cn4)C[C@H]2N3)cc1 (some centres not stated) | inconclusive: 20.6%
COc1ccc(C(=O)O)cc1S(=O)(=O)N(C)CCc1ccccn1 | inconclusive: 78%
O=C(C[C@H]1C=C[C@@H](NC(=O)C2CC2)[C@H](CO)O1)NCc1ccccc1Cl | inconclusive: 25.6%
CC=Cc1ccc2n(c1=O)C[C@H]1[C@H](CO)[C@@H](C(=O)Nc3nccs3)N(C(=O)CC)[C@@H]21 (mixture of isomers) | active: 57.8%
C[C@@H](NC(=O)c1nc[nH]c1C(=O)NCCCCCNC(=O)OC(C)(C)C)c1ccccc1 | inconclusive: 84.3%
C[C@@H]1CCCCO[C@H](CN(C)S(=O)(=O)c2cccs2)[C@@H](C)CN([C@@H](C)CO)C(=O)c2cc(NC(=O)NC3CCCCC3)ccc2O1 | inconclusive: 60.1%
CCC1CCCCN1C/C=C/c1ccccc1[N+](=O)[O-] (configuration not stated) | inactive: -2.67%
CCN(c1ccccc1)c1cc2ccccc2c(=O)[nH]1 | inconclusive: 38.4%
Nc1c(C(=O)c2cccs2)sc2nsc(SCCN3CCCCC3)c12 | active: 29.4%
O=C(NC[C@@H]1CC[C@@H]2[C@@H](CN2Cc2nccs2)O1)C1CCC1 | inactive: -6.59%
O=C(Cc1ccncc1)NCC[C@H]1CC[C@@H](NC(=O)C2CCCCC2)[C@@H](CO)O1 | inconclusive: 24.3%
c1ccc(-c2nc(-c3ccncc3)n[nH]2)nc1 | inactive: -2.91%
COCC(=O)N1CC(=O)N2[C@H](CO)[C@H](c3ccc(C#Cc4cccc(OC)c4)cc3)[C@@H]2C1 | active: 40.3%
C=CCC[C@@H](Cc1ccc(F)cc1)C(=O)OC[C@@H](NC(=O)[C@@H](CC=C)CC(=O)N[C@H](CO)Cc1ccccc1)C(C)(C)C | active: 24.9%
O=C(Nc1ccc(Cl)c(Cl)c1)N[C@H]1CC[C@@H](CCn2cc(C3CCCCC3)nn2)O[C@H]1CO | inconclusive: 21.7%
O=C(NC1CCCC1)C1c2ccccc2OCC(=O)N1Cc1ccc2c(c1)OCO2 (configuration not stated) | inconclusive: 70.1%
COc1cccc(S(=O)(=O)N(C)C[C@@H]2Oc3cc(C#CCN(C)C)ccc3S(=O)(=O)N([C@H](C)CO)C[C@H]2C)c1 | inconclusive: 33.1%
CCCNc1nc2c(c(=O)n(C)c(=O)n2C)n1Cc1ccc(F)cc1 | inconclusive: 45.1%
CSc1ncccc1C(=O)OCC(=O)N1CCN(S(=O)(=O)c2ccc(C)cc2C)CC1 | inconclusive: 41.7%
COc1ccc(N2C[C@H](CSC)[C@@H](CC(=O)Nc3ccccc3)C2=O)cc1 | inconclusive: 30.5%
COc1ccc(NS(=O)(=O)c2cc(NC(=O)c3ccc(S(=O)(=O)N(C)C)cc3)ccc2N2CCOCC2)cc1 | inconclusive: 27.3%

SMILES | CPE inhibition
CC(C)NC(=O)N(C)C[C@H]1OCCCC[C@H](C)Oc2ccc(N(C)C)cc2C(=O)N([C@@H](C)CO)C[C@@H]1C | inconclusive: 25.5%
CC(=O)N(C)C[C@@H]1Oc2ncc(-c3cccc(F)c3)cc2C(=O)N([C@H](C)CO)C[C@H]1C | inconclusive: 34.4%
Cc1noc(C)c1S(=O)(=O)Nc1ccc2c(c1)C(=O)N([C@H](C)CO)C[C@H](C)[C@H](CN(C)C(=O)Nc1ccccc1)OCCCC[C@H](C)O2 | active: 32.6%
CN(C)N=Nc1ccc(S(N)(=O)=O)cc1 | inactive: 6.65%
C/C=C(\C)CN1CCC(n2nccc2NC(=O)CCc2ccccc2)CC1 | active: 101%
CC1(C)Cc2c(c(N3CCOCC3)nc3sc4c(NCCN5CCOCC5)nnnc4c23)CS1 | inconclusive: 36.8%
Nc1nc(N)c2nc(-c3ccccc3)c(N)nc2n1 | inconclusive: 29.4%
CN1CCN(C(=O)C2=C[C@@H](C3CC3)C[C@@H](OCCCCO)O2)CC1 | inactive: -3.44%
O=C(CNC(=O)OCc1ccccc1)NC1(C(=O)O)CCCC1 | inconclusive: 22.2%
O=C(C[C@@H]1CC[C@@H]2[C@H](COC[C@H](O)CN2C(=O)Cc2ccccc2)O1)NC1CCC1 | active: 34.4%
CC(c1ccccc1)n1c(Cn2ncc3ccccc3c2=O)n[nH]c1=S (configuration not stated) | inactive: 4.27%
CCNc1nc(NC(C)C)nc(N(C)C#N)n1 | inactive: -7.22%
CC[C@]12c3[nH]c4ccc(Cl)cc4c3CCN1C(=O)[C@@H](CC(=O)NCCCn1ccnc1)C[C@@H]2C(=O)N1CCN(C(=O)c2ccco2)CC1 | inconclusive: 22.9%
O=C(Nc1ccc(F)cc1F)C1CC(=O)N(Cc2ccccc2)C1 (configuration not stated) | inconclusive: 23.9%
CCc1cnc(N2[C@@H](C#N)[C@@H](c3ccc(-c4cccc(F)c4)cc3)[C@@H]2CO)s1 | inconclusive: 51.6%
O=c1ccc(-c2ccc(S(=O)(=O)Nc3cccc([N+](=O)[O-])c3)s2)n[nH]1 | inconclusive: 55.8%
C[C@H](CO)N1C[C@H](C)[C@@H](CN(C)Cc2ccc(C(=O)Nc3ccccc3N)cc2)Oc2ccc(NC(=O)Cn3cnnn3)cc2C1=O | inactive: 0.765% and inactive: -8.25%
CCOc1ccc(CCNC(=O)c2ccc3c(=O)n4c(nc3c2)CCCCC4)cc1 | inconclusive: 26.3%
CC1CCCCC1NC(=O)CN1CCC(NC(=O)c2ccc([N+](=O)[O-])cc2)CC1 (configuration not stated) | inconclusive: 33.4%
CN(C)c1ccc2c(c1)[C@H]1C[C@H](CC(=O)NCc3ccc(Oc4ccccc4)cc3)O[C@@H](CO)[C@H]1O2 | inconclusive: 31.9%
Cn1cnc(S(=O)(=O)N2CCCCN3[C@H](CO)[C@H](c4ccc(C#CC5CCCC5)cc4)[C@@H]3C2)c1 | inconclusive: 24.5%
CSc1ccc(Cn2c(C)c(C(=O)NCc3cccc(Cl)c3)sc2=O)cc1 | inactive: -8.08%
CCCNC(=O)N1CC2(C1)[C@H](c1ccccc1)[C@H](CO)N2C(=O)C1CCCCC1 | active: 65.1%
C[C@H]1CCCCO[C@@H](CN(C)Cc2ccc3c(c2)OCO3)[C@@H](C)CN([C@@H](C)CO)C(=O)c2cc(NC(=O)CCC(F)(F)F)ccc2O1 | inconclusive: 27.3%
